Results: PubChem BioAssay AID504444 (National Center for Advancing Translational Sciences (NCATS), 2011)
In all, about 360,000 compounds went through this assay and about 7,500 (2.1%) were called active. The shares of active, inactive and inconclusive entries below differ from those in the screen. Calls follow the shape of the dose curve; as a rule, active = well fitted inhibition curve with a large enough effect; inconclusive = small, poorly fitted or top-dose-only effect, or effect the other way; inactive = flat fitted curve, though single readings scatter. Potencies beside an inconclusive call are fits to weak or partial responses and may not hold up.

test: Nrf2 qHTS screen for inhibitors; conditions: A549 ARE-Fluc reporter, luciferase luminescence, 18-24 h; series mostly up to 46 µM; also: nearly all actives have a fitted effect of over 60% in size
Method in brief: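 Nrf2 activity is the BugLite luminescence, read 15 min after reagent at room temperature, following CellTiter-Fluor cytotoxicity readout (30 min, 37C). Compound titrations were applied for 18-24 h to 5000 A549 ARE_Fluc cells/well in 5% FBS OPTI-MEM.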
Potency is read from the fitted curve at half-maximal effect.

| Structure (SMILES) | Potency |
| --- | --- |
| COc1ccc(-c2cc(C(=O)Nc3cccc(Cl)c3)no2)cc1 | inconclusive: 4.61 µM [activator, full curve] |
| Cc1cccc2sc(NC(=O)Cn3c(C)csc3=O)nc12 | inconclusive: 29.1 µM [activator, partial curve, poor fit] |
| COc1ccc(C(=O)CSc2nnc(CNC(=O)c3ccc(S(=O)(=O)N(C)C)cc3)o2)cc1 | inactive |
| COCCN1Cc2c(sc(C)c2C)N(C(=O)c2ccccc2)C1 | inconclusive: 3.26 µM [activator, full curve] |
| CC(C)/C=C(/C(=O)c1ccc(Cl)cc1Cl)n1cncn1 | inactive |
| NC(=O)c1ccc(NC(=O)COC(=O)CC(NC(=O)c2ccccc2Cl)c2ccccc2)cc1 (stereo not drawn) | inconclusive: 32.6 µM [activator, single point] |
| NC(=O)c1c(NC(=O)c2ccccc2)sc2c1CCC2 | inconclusive: 6.51 µM [activator, partial curve] |
| COc1cccc(C(=O)Nc2cc(C)c3c(=O)oc4ccccc4c3n2)c1 | inactive |
| C=CCNC(=O)C1CCN(S(=O)(=O)c2ccc3ccccc3c2)CC1 | inactive |
| CSCCNC(=O)c1ccc(C(C)(C)C)cc1 | inconclusive: 7.08 µM [activator, partial curve] |
| Clc1ccc(N2CCN(/N=C/c3cccnc3)CC2)cc1 | active: 8.2 µM |
| CCOc1c(Cl)cc(/C=C/C(=O)N(CC)CC(=O)NCc2cccs2)cc1OC | inactive |
| O=C(Nc1ccc(Cl)cn1)c1ccc2ccccc2n1 | inconclusive: 18.4 µM [activator, partial curve] |
| O=C(NC(=S)N1CCN(Cc2ccccc2)CC1)c1cccnc1 | inactive |
| COc1ccccc1/C=N/NC(=O)c1csc(C)c1C | inconclusive: 11.6 µM [activator, partial curve, poor fit] |
| Cc1c(NC(=S)NC(=O)c2cc3ccccc3o2)cccc1C(=O)O | inconclusive: 11.6 µM [activator, partial curve, poor fit] |
| COC(=O)c1cc(NC(=O)c2ccc(Cn3cc(Cl)cn3)o2)cc(C(=O)OC)c1 | active: 20.6 µM |
| COc1ccccc1N1CCN(C(=O)c2cccc(S(=O)(=O)NCc3cccnc3)c2)CC1 | inconclusive: 14.6 µM [falling, partial curve, poor fit] |
| CCOCC(=O)Nc1ccc(OCc2ccccc2)cc1 | inconclusive: 16.4 µM [activator, partial curve, poor fit] |
| CCOC(=O)c1cc(-c2ccc3c(c2)OCO3)nc2onc(C)c12 | inconclusive: 14.6 µM [falling, partial curve, poor fit] |
| COc1ccc(-c2onc(C)c2C)cc1S(=O)(=O)N(C)Cc1ccco1 | inconclusive: 29.1 µM [falling, single point] |
| CCOC(=O)C1CCN(CC(=O)N2CCCc3c2c(=O)oc2ccc(OCc4ccccc4)cc32)CC1 | inactive |

Ordered by formula weight (ascending): some entries from above

| Structure (SMILES) | Potency |
| --- | --- |
| CCOCC(=O)Nc1ccc(OCc2ccccc2)cc1 | inconclusive: 16.4 µM [activator, partial curve, poor fit] |
| NC(=O)c1c(NC(=O)c2ccccc2)sc2c1CCC2 | inconclusive: 6.51 µM [activator, partial curve] |
| COc1cccc(C(=O)Nc2cc(C)c3c(=O)oc4ccccc4c3n2)c1 | inactive |
| COc1ccc(-c2onc(C)c2C)cc1S(=O)(=O)N(C)Cc1ccco1 | inconclusive: 29.1 µM [falling, single point] |
| CCOc1c(Cl)cc(/C=C/C(=O)N(CC)CC(=O)NCc2cccs2)cc1OC | inactive |
| COc1ccccc1N1CCN(C(=O)c2cccc(S(=O)(=O)NCc3cccnc3)c2)CC1 | inconclusive: 14.6 µM [falling, partial curve, poor fit] |
| NC(=O)c1ccc(NC(=O)COC(=O)CC(NC(=O)c2ccccc2Cl)c2ccccc2)cc1 (stereo not drawn) | inconclusive: 32.6 µM [activator, single point] |
| COc1ccc(C(=O)CSc2nnc(CNC(=O)c3ccc(S(=O)(=O)N(C)C)cc3)o2)cc1 | inactive |

Later entries.

| Structure (SMILES) | Potency |
| --- | --- |
| COc1cc(/C=C/C(=O)Nc2cc(C(F)(F)F)ccc2Cl)cc(OC)c1OC | inconclusive: 20.6 µM [falling, single point] |
| CCOC(=O)C1CCCN(c2ccc(NC(=O)c3snc4c(=O)[nH]cnc34)cc2)C1 (stereo not drawn) | inconclusive: 29.1 µM [falling, single point] |
| CCC(C)N(CCNC(=O)c1ccc2c(c1)NC(=O)c1ccccc1S2)C1CCCCC1 (stereo not drawn) | inactive |
| CCCn1nc(NC(=O)c2ccco2)c2cc3ccc(C)cc3nc21 | inconclusive: 1.46 µM [falling, full curve, poor fit] |
| COc1ccc(Br)cc1/C=N/NC(=O)c1nc(-c2ccccc2)n2c1CCCCC2 | inconclusive: 29.1 µM [falling, single point] |
| O=C1C(=O)N(CCS(=O)(=O)c2ccccc2)c2ccc(Cl)cc21 | inactive |
| O=C(C1CCN(S(=O)(=O)c2ccc(Br)s2)CC1)N1CCc2ccccc21 | inconclusive: 23.1 µM [falling, single point] |
| CCOc1ccc(-c2nnc(SCC(=O)NC(C)(C)C)nc2-c2ccc(OCC)c(OC)c2)cc1OC | inconclusive: 6.51 µM [falling, single point] |
| COc1ccc(-c2nc(-c3cccs3)c(-c3cccs3)[nH]2)cc1OC | inactive |
| CC(=O)N1c2ccc(S(=O)(=O)N3CCC(C(=O)Nc4cccc(C)c4)CC3)cc2CC1C (stereo not drawn) | inconclusive: 29.1 µM [falling, single point] |
| O=C(Cc1cccs1)N/N=C/C=C/c1ccco1 | inactive |
| Cc1ccc(NC(=O)/C(C#N)=C/c2ccc(C)o2)cc1 | inconclusive: 14.6 µM [activator, partial curve] |
| CC(C)CCNC(=O)c1ccc2c(c1)NC(=O)C(CS(=O)(=O)Cc1cccc(Br)c1)N2 (stereo not drawn) | inconclusive: 14.6 µM [activator, partial curve, poor fit] |
| Cc1ccc(Cn2cc(/C=N/Nc3ccc([N+](=O)[O-])cn3)c3ccccc32)cc1 | inconclusive: 29.1 µM [activator, single point] |
| COc1nc(N(C#N)CC(N)=O)nc(N2CCCC2)n1 | inconclusive: 7.31 µM [falling, partial curve, poor fit] |
| CCOC(=O)c1cnn(-c2ccc([N+](=O)[O-])cc2)c1N | inconclusive: 4.11 µM [falling, full curve, poor fit] |
| O=S(=O)(Nc1ccc(-c2ccc3nncn3n2)cc1)c1ccc(Cl)s1 | inconclusive: 20.6 µM [falling, partial curve, poor fit] |
| COc1ccc(C(=O)Nc2nc3ccccc3s2)cc1 | inconclusive: 6.51 µM [activator, partial curve, poor fit] |
| COc1ccc(OCCCCn2c(C3CC(=O)N(c4cccc(Cl)c4)C3)nc3ccccc32)cc1 (stereo not drawn) | inconclusive: 32.6 µM [falling, single point] |
| COc1cc(/C=N/NC(=O)c2ccc3ccccc3c2)ccc1Oc1ccc([N+](=O)[O-])cn1 | inconclusive: 10.3 µM [falling, partial curve] |
| COCCNC(=O)CCCN1C(=O)c2ccccc2Sc2ncccc21 | inconclusive: 16.4 µM [activator, partial curve, poor fit] |
